Patent US20120003244A1
Results are given in words; binding and its absence hold for the method and conditions named. Binding seen in cells or lysates may run through a third protein. Some binding calls cover weakened binding; strength is not graded here. Each block holds one substance with its values, some of them ahead of it.

Protein sequences, listed by entry. Tags and fused reporters are not part of them. Lines headed by an entry give the natural chain unless they say otherwise; changes in a name come on top. Residues count along the entry.
UniProt Q8J025: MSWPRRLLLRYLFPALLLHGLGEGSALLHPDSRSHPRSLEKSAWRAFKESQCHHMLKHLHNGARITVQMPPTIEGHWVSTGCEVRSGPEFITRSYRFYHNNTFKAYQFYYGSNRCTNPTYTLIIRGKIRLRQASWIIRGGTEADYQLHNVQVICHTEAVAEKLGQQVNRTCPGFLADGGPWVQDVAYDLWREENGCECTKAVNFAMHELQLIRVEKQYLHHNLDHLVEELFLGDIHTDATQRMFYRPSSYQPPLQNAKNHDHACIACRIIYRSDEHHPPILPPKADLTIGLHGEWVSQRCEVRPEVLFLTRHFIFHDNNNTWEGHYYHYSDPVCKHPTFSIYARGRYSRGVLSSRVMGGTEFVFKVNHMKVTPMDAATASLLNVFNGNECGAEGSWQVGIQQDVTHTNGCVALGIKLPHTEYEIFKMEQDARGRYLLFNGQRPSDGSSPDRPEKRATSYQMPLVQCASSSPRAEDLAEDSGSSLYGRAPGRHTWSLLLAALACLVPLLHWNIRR
UniProt P56704, residues 19-352: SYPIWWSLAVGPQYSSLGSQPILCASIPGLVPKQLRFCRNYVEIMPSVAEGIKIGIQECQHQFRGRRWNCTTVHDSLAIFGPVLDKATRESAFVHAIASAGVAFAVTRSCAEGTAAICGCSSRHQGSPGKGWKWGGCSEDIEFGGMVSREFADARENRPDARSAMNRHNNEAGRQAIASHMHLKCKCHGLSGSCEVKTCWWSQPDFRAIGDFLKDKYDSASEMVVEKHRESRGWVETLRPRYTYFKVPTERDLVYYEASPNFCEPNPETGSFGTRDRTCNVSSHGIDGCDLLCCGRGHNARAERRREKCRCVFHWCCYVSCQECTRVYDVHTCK

Assays:
[1] = molecular target: C-terminal HA-tagged wild-type human APCDD1 (SWAMP-HA; pCXN2.1-Wt-SWAMP-HA) (human) (UniProt Q8J025); assay: co-immunoprecipitation in HEK293T cells
[2] = molecular target: C-terminal HA-tagged wild-type human APCDD1 (SWAMP-HA; pCXN2.1-Wt-SWAMP-HA) (human) (UniProt Q8J025); assay: western blot and co-immunoprecipitation of SWAMP expressed in HEK293T cells
[3] = molecular target: C-terminal Flag-tagged human SWAMP (SWAMP-Flag; pCXN2.1-Wt-SWAMP-Flag) (human) (UniProt Q8J025); assay: co-immunoprecipitation in HEK293T cells
[4] = molecular target: C-terminal HA-tagged human WNT3A (WNT3A-HA; pCXN2.1-WNT3A-HA) (human) (UniProt P56704); assay: co-precipitation (FIG. 18)
[5] = molecular target: C-terminal HA-tagged human WNT3A (WNT3A-HA; pCXN2.1-WNT3A-HA) (human) (UniProt P56704); assay: co-immunoprecipitation in HEK293T cells

Substance: C-terminal Flag-tagged human SWAMP (SWAMP-Flag; pCXN2.1-Wt-SWAMP-Flag) (from UniProt Q8J025 27-514) (receptor)
binding [1]: binds | binding [2]: binds

binding [3]: binds
Substance: C-terminal HA-tagged wild-type human APCDD1 (SWAMP-HA; pCXN2.1-Wt-SWAMP-HA) (from UniProt Q8J025 27-514) (receptor)

binding [4]: binds | binding [5]: binds
Substance: Flag-tagged extracellular domain of SWAMP protein (SWAMP-ΔTM-Flag; pCXN2.1-SWAMP-ΔTM-Flag) (from UniProt Q8J025 27-486) (receptor)
